Literature values as cited in PMC10227131 (Pharmacological Reports, 2023).
Structures can show the parent of a compound that is named as a salt.

System: male Sprague–Dawley rats
Conditions: icv 100 nmol, n = 6; data re-used; ref [19]; cited from earlier work
Source text: […]. […] […].

CN1CC[C@]23c4c5ccc(O)c4O[C@H]2[C@@H](O)C=C[C@H]3[C@H]1C5 [morphine, morphine hydrochloride]
Mean (± SEM) ΔLatency-AUC: 12.0 (± 1.4) s.h
